{"source": "patent US20100152434A1", "about": "“Protein Kinase-binding Nucleosides and Associated Methods” (priority 2007, published 2010)", "note": "Read-outs that look alike come from different tables or passages of the source."}
{"smiles": "CNC(=O)NC[C@H]1O[C@@H](n2cnc3c(NC(=O)Nc4ccccc4)ncnc32)[C@H](O[Si](C)(C)C(C)(C)C)[C@@H]1CC(=O)N(C)OC", "note": "[Compound 13, 2′-O-(tert-Butyldimethylsilyl)-3′,5′-dideoxy-3′-[(N-methoxy-N-methylcarboxamido)methyl]-5′-[(N-methylcarbamoyl)amino]-N^6-(N-phenylcarbamoyl)adenosine]", "values": [{"measurement": "Mean Optical Densities", "setting": "HL-60(TB); Log10 Concentration −4.0", "result": 0.292}, {"measurement": "Mean Optical Densities", "setting": "HL-60(TB); Log10 Concentration −5.0", "result": 0.365}, {"measurement": "Mean Optical Densities", "setting": "HL-60(TB); Log10 Concentration −6.0", "result": 1.482}, {"measurement": "Mean Optical Densities", "setting": "HL-60(TB); Log10 Concentration −7.0", "result": 1.503}, {"measurement": "Mean Optical Densities", "setting": "HL-60(TB); Log10 Concentration −8.0", "result": 1.580}, {"measurement": "Mean Optical Densities", "setting": "SF-268; Log10 Concentration −4.0", "result": 0.726}, {"measurement": "Mean Optical Densities", "setting": "SF-268; Log10 Concentration −5.0", "result": 0.952}, {"measurement": "Mean Optical Densities", "setting": "SF-268; Log10 Concentration −6.0", "result": 1.339}, {"measurement": "Mean Optical Densities", "setting": "SF-268; Log10 Concentration −7.0", "result": 1.454}, {"measurement": "Mean Optical Densities", "setting": "SF-268; Log10 Concentration −8.0", "result": 1.394}, {"measurement": "Mean Optical Densities", "setting": "SF-295; Log10 Concentration −4.0", "result": 1.105}, {"measurement": "Mean Optical Densities", "setting": "SF-295; Log10 Concentration −5.0", "result": 1.632}, {"measurement": "Mean Optical Densities", "setting": "SF-295; Log10 Concentration −6.0", "result": 2.575}, {"measurement": "Mean Optical Densities", "setting": "SF-295; Log10 Concentration −7.0", "result": 2.476}, {"measurement": "Mean Optical Densities", "setting": "SF-295; Log10 Concentration −8.0", "result": 2.480}, {"measurement": "Mean Optical Densities", "setting": "OVCAR-5; Log10 Concentration −4.0", "result": 0.688}, {"measurement": "Mean Optical Densities", "setting": "OVCAR-5; Log10 Concentration −5.0", "result": 0.921}, {"measurement": "Mean Optical Densities", "setting": "OVCAR-5; Log10 Concentration −6.0", "result": 1.053}, {"measurement": "Mean Optical Densities", "setting": "OVCAR-5; Log10 Concentration −7.0", "result": 1.092}, {"measurement": "Mean Optical Densities", "setting": "OVCAR-5; Log10 Concentration −8.0", "result": 1.098}, {"measurement": "Mean Optical Densities", "setting": "OVCAR-8; Log10 Concentration −4.0", "result": 0.575}, {"measurement": "Mean Optical Densities", "setting": "OVCAR-8; Log10 Concentration −5.0", "result": 0.820}, {"measurement": "Mean Optical Densities", "setting": "OVCAR-8; Log10 Concentration −6.0", "result": 1.338}, {"measurement": "Mean Optical Densities", "setting": "OVCAR-8; Log10 Concentration −7.0", "result": 1.371}, {"measurement": "Mean Optical Densities", "setting": "OVCAR-8; Log10 Concentration −8.0", "result": 1.382}, {"measurement": "Mean Optical Densities", "setting": "TK-10; Log10 Concentration −4.0", "result": 0.667}, {"measurement": "Mean Optical Densities", "setting": "TK-10; Log10 Concentration −5.0", "result": 0.968}, {"measurement": "Mean Optical Densities", "setting": "TK-10; Log10 Concentration −6.0", "result": 1.209}, {"measurement": "Mean Optical Densities", "setting": "TK-10; Log10 Concentration −7.0", "result": 1.223}, {"measurement": "Mean Optical Densities", "setting": "TK-10; Log10 Concentration −8.0", "result": 1.177}, {"measurement": "Mean Optical Densities", "setting": "MDA-MB-231/ATCC; Log10 Concentration −4.0", "result": 0.417}, {"measurement": "Mean Optical Densities", "setting": "MDA-MB-231/ATCC; Log10 Concentration −5.0", "result": 0.704}, {"measurement": "Mean Optical Densities", "setting": "MDA-MB-231/ATCC; Log10 Concentration −6.0", "result": 0.933}, {"measurement": "Mean Optical Densities", "setting": "MDA-MB-231/ATCC; Log10 Concentration −7.0", "result": 0.990}, {"measurement": "Mean Optical Densities", "setting": "MDA-MB-231/ATCC; Log10 Concentration −8.0", "result": 0.947}, {"measurement": "Mean Optical Densities", "setting": "HS 578T; Log10 Concentration −4.0", "result": 0.567}, {"measurement": "Mean Optical Densities", "setting": "HS 578T; Log10 Concentration −5.0", "result": 0.703}, {"measurement": "Mean Optical Densities", "setting": "HS 578T; Log10 Concentration −6.0", "result": 0.912}, {"measurement": "Mean Optical Densities", "setting": "HS 578T; Log10 Concentration −7.0", "result": 0.989}, {"measurement": "Mean Optical Densities", "setting": "HS 578T; Log10 Concentration −8.0", "result": 0.992}, {"measurement": "Mean Optical Densities", "setting": "BT-549; Log10 Concentration −4.0", "result": 1.197}, {"measurement": "Mean Optical Densities", "setting": "BT-549; Log10 Concentration −5.0", "result": 1.671}, {"measurement": "Mean Optical Densities", "setting": "BT-549; Log10 Concentration −6.0", "result": 1.946}, {"measurement": "Mean Optical Densities", "setting": "BT-549; Log10 Concentration −7.0", "result": 1.965}, {"measurement": "Mean Optical Densities", "setting": "BT-549; Log10 Concentration −8.0", "result": 1.940}]}
